No constants are given. Whether binding was seen depends on the method and setting. In cells and extracts the contact can be indirect. These calls come from enrichment with a bait or labelling near it, and not all partners need be listed. Tags and fused reporters may be left off the sequences shown.

From paper PMC7816512 come the findings set out here.

The target of this assay is T1, FLAG-HA-Rbm10 (S. pombe) (UniProt P87143).
T1 sequence: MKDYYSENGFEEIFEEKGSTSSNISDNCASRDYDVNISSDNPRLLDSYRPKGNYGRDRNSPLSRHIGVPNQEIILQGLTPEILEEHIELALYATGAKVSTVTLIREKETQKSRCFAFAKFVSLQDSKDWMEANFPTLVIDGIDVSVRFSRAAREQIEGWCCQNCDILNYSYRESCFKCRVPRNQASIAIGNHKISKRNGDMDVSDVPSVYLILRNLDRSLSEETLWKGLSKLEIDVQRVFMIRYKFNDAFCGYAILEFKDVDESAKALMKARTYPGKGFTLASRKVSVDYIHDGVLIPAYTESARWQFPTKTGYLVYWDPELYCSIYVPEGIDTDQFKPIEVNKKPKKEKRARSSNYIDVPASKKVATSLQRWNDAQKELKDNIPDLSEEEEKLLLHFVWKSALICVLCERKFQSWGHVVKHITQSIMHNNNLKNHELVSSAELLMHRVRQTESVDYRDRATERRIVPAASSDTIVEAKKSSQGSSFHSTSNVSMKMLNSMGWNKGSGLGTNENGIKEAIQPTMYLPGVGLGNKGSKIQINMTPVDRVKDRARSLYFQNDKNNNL
Put plainly: affinity purification with mass spectrometry; two-step purification (anti-FLAG beads, 3xFLAG peptide elution, then uMACS HA magnetic beads) of overexpressed FLAG-HA-Rbm10 from S. pombe lysate with Benzonase; three independent purifications; control purification from an untagged strain.

B1: Cwf4 (protein, UniProt P87312 1-674)
chain: MTSEAPRVKNKNPAPIQISAEQLLREAVERQDVAFVPPKINITDLEELQEFQGRKRKEFEDAIRRNRLAMGHWMRYGQWELDQKEFARARSVFERALDVDSTYIPLWLKYIECEMKNRNINHARNLFDRAVTQLPRVDKLWYKYVYMEEMLGNITGCRQVFERWLKWEPDENCWMSYIRMERRYHENERARGIYERFVVVHPEVTNWLRWARFEEECGNAANVRQVYLAAIDALGQEFLNERFFIAFAKFEIRQKEYERARTIFKYAIDFMPRSKSMELYKEYTHFEKQFGDHLGVESTVLDKRRLQYEKLLKDSPYDYDTWLDLLKLEESAGDINTIRETYEKAIAKVPEVVEKNAWRRYVYIWLNYCLFEEIDVKDVDRARKVYQEALKLIPHKKFTFAKLWLMYAMFELRQRKIDVARKTLGRALGMCPKPKLFRGYIEFEDAIKQFDRCRILYEKWILYDPEACAPWLGYAALETKLGDSDRARALYNLAVNQPILETPELVWKAYIDFEFEEMEYGKARSIYQQLLRTAPHVKVWISFANFEIAHLEDDDEEPPNEEVASPTAVVRARNVFENALAHLRQQGLKEERVVLLEAWKQFEAMHGTEDTRKHVSSLMPQVVKKRRRLEDGSFEEYLDYLFPDTATDQGDKMRKMLELSRKWKEEMAKKKLEA
As for B1, the binding result is recorded as “binds”.

B2: Cwf3 (protein, UniProt Q9P7R9 1-790)
chain: MGDVIPLKVNFDLINVDDEPFELELLRDPYSLKSWLRYIKTHEGSTLEKRVLLFERACSELPGSYKIWKSYLELRVAHVEHLNPYFHAEAFASVNDCFERSLILLHKMPVIWKLYLQFLMKQPNVTKIRCTFNSALRALPVTQHDDIWDMFTKYAEDIGGLFCIHVYRRYIQVEPRAIENYIEILCKLGLWNEAARQYEDILNRPVFLSAKRKSNYQIWLEFSELVVQHPDHTQNIDVEKVFRAGIKRFSDQAGKLWTYLAQYYIRIGDYEKARSTFYEGMNNIMTVRNFTIIFDAFVEFEEQWLSARVEASSGNANDELSIDFHMAWLEKILDKRPLYINDVLLRQNINNVDEWLRRVKFLEDDSEKVVQVYTDAIKNVNPKLAHGSLGKLFSEFARFYENFDDLEQSRIIFEKATHVPYKTVNELAQVWIDWAEMELRHQNFDAARKLIGDAVHAPRKSHISFFDESLSPQVRLHKSSKIWMYYLDLEESVGTIETTRKLYDRVFELKIATPQVVVNYANLLEENAYFEDSFKIYERGVALFSYPVAFELWNLYLTKFVKRYQGTHMERTRDLFEQALEGCPPEFSKSIYLLYADFEEKFGKAKRSISILEKAADKVKTADRLAIYNVLLVKVALNYGVLATRTVYEKAIESLSDSEVKDMCLRFAEMETKLGEIDRARLIYIHGSQYCDPRVETDYWKAWQEFEIRYGNPEETVKEMLRIKRSVQTKFSTDSLHIAKRAAKIESAAAPMDPMEQLEMEKSEGPKALAGFVLSKSNPQETSKITGEEN
On to B2, for which the binding entry is listed as “binds”.

B3: Cwf5 (protein, UniProt O59800 1-354)
chain: MSHGPKGDINKQEWEDVEFPSICERCLGDNSYVRMTKEPLGQECKICSKPCTIFRWIKERGQKPGKTQICVGCARYKNCCQSCMLDLQFGLPIALRDAALKLVESGPTNDINREFFAQNQQRLLSNGETAYDSQEASAAARNLVKKVEKRELHSRPPKRKLDDVESKQILKEARASDASLNAERPLFPVKKIINGNVSLSINMEPPKDKKIASLFLIGVEDELADYKIRKHFEQYGPLKSVVCSHRAKCAFVNFKTRSSAEIAAAASPDGNVVIEGFRLKVQWGKPRSLGGPEGEVRNAKLADLVMRGSSHGNKTSQKSTIKNIENEDHENTKSPAVAIPIDPNQPRYRSQIPR
Regarding B3, the binding result was “binds”.

B4: Prw1 (protein, UniProt O14021 1-431)
chain: MAVSAVPHPSKQAQASEEGINQEKCINEEYKIWKKNSPFLYDLIITRALEWPCMSLQWYPEQQIFAEHGYTEQKMFLGVRADVGKYLLAVASIQLPYLNQTVPPTTMEGASAGDESSLRVNISNLYSHPESVCSAKLMPQDDSCVATVGNYHNDVLVFDKESFESYSSASESPLKPKYRLTKHTQPCTSVCWNFLSKGTLVSGSQDATLSCWDLNAYNESDSASVLKVHISSHEKQVSDVRFHYKHQDLLASVSYDQYLHVHDIRRPDASTKPARSVHAHSGPIHSVAFNPHNDFILATCSTDKTIALWDLRNLNQRLHTLEGHEDIVTKISFSPHEEPILASTSADRRTLVWDLSRIGEDQPAEEAQDGPPELLFMHGGHTSCTIDMDWCPNYNWTMATAAEDNILQIWTPSRSIWGNEQLEEDATAYLS
Turning to B4, the binding entry is “binds”.
